PubChem BioAssay AID1671195, Yale University | 2021
In all, the deposit lists about 22,000 reagents; this is a part drawn at random. Over the whole deposit, about 1,510 (6.9%) got an active call. 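Active includes knockdowns raising or lowering LDL uptake; positive z-scores mean more uptake, negative mean less.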

Aim: 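Regulators of LDL receptor activity judged by labelled LDL uptake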 (primary screen)
Cells: human Huh7 hepatoma cells
Reagents: siRNA pool against human genes, 18 nM
Duration: about 2 to 2.5 days of knockdown, then 8 h LDL uptake
Challenge: DiI-labelled LDL at 30 µg/ml for 8 h, in lipoprotein-deficient serum medium
Measured: 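Fluorescent LDL signal imaged in cells, scaled to the plate median, robust z-score for each replicate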
Direction: robust z-score: higher = more LDL uptake after knockdown
Call rule: 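a gene counts as active if at least two replicate z-scores exceed ±2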

The opening 2 entries, ahead of the listing:
gene symbol	PubChem SID	robust z-score, replicate 1	robust z-score, replicate 2	robust z-score, replicate 3	Outcome
C1orf174 (chromosome 1 open reading frame 174)	SID442899701	-0.709	-0.722	-0.539	inactive
DIO3 (iodothyronine deiodinase 3)	SID442888627	0.827	0.943	0.294	inactive

The listing, from the start:
gene symbol	PubChem SID	robust z-score, replicate 1	robust z-score, replicate 2	robust z-score, replicate 3	Outcome
C1orf174 (chromosome 1 open reading frame 174)	SID442899701	-0.709	-0.722	-0.539	inactive
DIO3 (iodothyronine deiodinase 3)	SID442888627	0.827	0.943	0.294	inactive
WBP4 (WW domain binding protein 4)	SID442888519	0.5	-0.265	1.88	inactive
SNX29P1 (sorting nexin 29 pseudogene 1)	SID442895580	0.0443	-0.233	-0.361	inactive
OOSP1 (oocyte secreted protein 1)	SID442891148	0.223	0.439	0.311	inactive
RNFT1 (ring finger protein, transmembrane 1)	SID442900576	-0.55	-0.881	-0.903	inactive
TRIP10 (thyroid hormone receptor interactor 10)	SID442904307	-1.4	-1.69	-1.64	inactive
SMTN (smoothelin)	SID442893673	0.299	0.318	-0.548	inactive
ZNF708 (zinc finger protein 708)	SID442889893	0.656	0.384	0.437	inactive
TMEM47 (transmembrane protein 47)	SID442897702	-0.73	-0.181	-0.334	inactive
RPLP2P1 (ribosomal protein lateral stalk subunit P2 pseudogene 1)	SID442888499	0.976	0.315	0.835	inactive
CDH17 (cadherin 17)	SID442901740	-1.3	-0.629	-0.921	inactive
XPNPEP1 (X-prolyl aminopeptidase 1)	SID442897275	-0.618	0.134	-0.617	inactive
CCDC127 (coiled-coil domain containing 127)	SID442890342	0.797	0.759	-0.263	inactive
SUMO1 (small ubiquitin like modifier 1)	SID442893834	0.261	0.11	-0.355	inactive
SPRR2E (small proline rich protein 2E)	SID442885140	1.2	1.87	1.91	inactive
ZDHHC3 (zDHHC palmitoyltransferase 3)	SID442888377	1.12	0.223	0.851	inactive
TAF10 (TATA-box binding protein associated factor 10)	SID442889877	0.426	-0.0375	1.1	inactive
NKX6-2 (NK6 homeobox 2)	SID442887824	0.851	-0.0653	1.72	inactive
OR1E1 (olfactory receptor family 1 subfamily E member 1)	SID442890858	0.148	1.05	-0.112	inactive
LRR1 (leucine rich repeat protein 1)	SID442902494	-1.29	-0.906	-1.07	inactive
CNIH2 (cornichon family AMPA receptor auxiliary protein 2)	SID442898848	-0.648	-0.465	-0.524	inactive
ZNF700 (zinc finger protein 700)	SID442883603	2.98	2.79	2	active
IQCF2 (IQ motif containing F2)	SID442896279	0.0226	-0.476	-0.314	inactive
SMIM24 (small integral membrane protein 24)	SID442892881	0.112	0.28	-0.0488	inactive
ABCA5 (ATP binding cassette subfamily A member 5)	SID442889547	0.305	0.747	0.576	inactive
LOC441033 (retired record)	SID442896666	-0.363	-0.0689	-0.464	inactive
MSANTD3 (Myb/SANT DNA binding domain containing 3)	SID442893656	-0.174	-0.383	0.63	inactive
